# Screening data, single-dose tests

By UniProt entry, the sequences of proteins in these tests, tags left out.
UniProt P9WNZ1, whole entry: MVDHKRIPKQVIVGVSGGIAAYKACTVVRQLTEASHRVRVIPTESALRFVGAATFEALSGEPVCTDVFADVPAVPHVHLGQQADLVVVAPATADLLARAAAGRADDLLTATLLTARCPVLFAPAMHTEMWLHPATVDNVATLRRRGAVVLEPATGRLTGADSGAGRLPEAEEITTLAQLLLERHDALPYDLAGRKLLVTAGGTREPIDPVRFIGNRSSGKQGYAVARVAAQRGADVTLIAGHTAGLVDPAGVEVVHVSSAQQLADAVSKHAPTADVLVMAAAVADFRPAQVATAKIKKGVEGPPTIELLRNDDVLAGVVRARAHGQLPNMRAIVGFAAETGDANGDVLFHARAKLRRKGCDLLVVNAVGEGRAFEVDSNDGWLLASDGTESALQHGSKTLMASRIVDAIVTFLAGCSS

The values are deposited in ChEMBL (CHEMBL3988442, “University of Dundee, Small-Polar-MMV Screening Library” (2021)).

CoaBC: 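Coenzyme A biosynthesis protein CoaBC, Mycobacterium tuberculosis (UniProt P9WNZ1). Enzyme assay of CoaBC with a phosphate dye (Biomol Green) read at 650 nm. Compounds at 30 µM. Direction is inferred from only a few compounds that gave an IC50; most scored high, so higher reads as stronger inhibition. Most strong results did not repeat in a second test. Size under these conditions: about 67,000 compounds, about 40 of them at 50% or above in at least one test.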
Leishmania in macrophages: 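Cell assay of Leishmania donovani living inside macrophages; the read-out is not stated. Compounds at 30 µM. The record gives no direction; compounds that gave an IC50 in retests scored well above the rest, so higher reads as stronger inhibition. Of about 69,000 compounds tested this way, about 1,000 (1.5%) reached 50% or more in at least one test.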

Values are the deposited “Percent Effect”, in %.
How 0% and 100% were set is not recorded. Most values in the screen are low, and negative values occur.
Compounds were drawn at random from those tested, without regard to their results.
Two or more numbers in one place are separate tests of the same structure; such repeats can differ widely.
A dash means the value is not listed here; it may have been measured.

Compound	CoaBC	Leishmania in macrophages
CS(=O)(=O)N1CCc2[nH]cnc2C12CCN(C(=O)c1ccc[nH]1)CC2	0.3636%	21.47%
N#Cc1nccnc1N1CCC(Cc2ccccc2)C1 (configuration not stated)	-4.715%	-9.001%
[H][C@@]12CCC(=O)N(CCCOC)[C@]1([H])CCN(Cc1ccc3occc3c1)C2	-	36.47%
CCCc1nc(N[C@H]2COC[C@@H]2N2CCCC2)c2cnn(C)c2n1	13.11%	-3.075%
O=C(c1cccc(S(=O)(=O)NCCCn2cccn2)c1)N1CCOCC1	0.1206%	-2.169%
Cc1ccc(N2Cc3cnn(Cc4ccc(F)cc4)c3C2)nn1	6.684%	10.72%
Cc1ccc(NC(=O)N2CCC3(CCC(C(=O)N(C)C)O3)CC2)cc1 (configuration not stated)	5.569%	15.19%
O=C(c1cccnc1-c1ccc2c(c1)OCCO2)N1CCCC1	-6.21%	9.79%
CN1CCOC(C)(C(=O)Nc2nc(C(C)(C)C)cs2)C1 (configuration not stated)	-1.435%	-20.65%
Cc1nn(C)c(N(C)C)c1CNC1CCc2c(Cl)cccc21.Cl (configuration not stated)	-	34.54%
CCN1CCN(C(=O)NCc2cccnc2-n2cccn2)CC1	-0.7833%	-15.55%
CNC(=O)CN(C)C(=O)c1cc(Cl)c(Cl)n1C	4.464%	1.638%
Cc1cccc(C(C(=O)N2CC(c3ccncc3)C2)N(C)C)c1 (configuration not stated)	1.24%	1.924%
COc1ccccc1Cc1cncc(N2CC(C(=O)O)C2)n1.Cl	-	35.18%
CCNC(=O)N1CCC(c2ccccc2)C1 (configuration not stated)	-0.6017%	2.767%
O=C(Nc1ccc(F)cc1)N1C[C@H]2C[C@H](C(=O)N3CCCC3)[C@@H](C1)O2	3.758%	-
CNC(=O)CN1CCOCC12CCN(CCc1ccccc1)CC2.O=C(O)C(F)(F)F.O=C(O)C(F)(F)F	-	1.009%
CCSc1ccccc1C(=O)N1CCC(S(=O)(=O)c2nncn2C)CC1	-0.4202%	-3.002%
Cc1c(C)n(CC(O)CN2CCOCC2)c2c(Cl)cccc12 (configuration not stated)	3.639%	-
NCCc1c(-c2ccccc2)[nH][nH]c1=O.O=C(O)C(=O)O	-	1.888%
COc1ccc(C)cc1-n1cnnc1C1CCOCC1	2.101%	9.491%
N#Cc1ccc(Cl)cc1NCC1CC1	7.12%	-16.64%
CCn1cc(CN(C)C(=O)c2cccc(CCC(C)(C)O)c2)cn1	-1.786%	8.167%
CCCn1cc(Cl)c(C(=O)N2C[C@@H](O)[C@H](Oc3ccccc3)C2)n1	0.9569%	-10.04%
CN(Cc1ccccc1F)C(C(N)=O)c1ccccc1 (configuration not stated)	-0.128%	11.08%
CCN(C)C(=O)c1ncn2c(C3CCN(S(C)(=O)=O)CC3)ccnc12	-	5.35%
CC(C)c1nnc2n1CCN(C(=O)CN1Cc3ccccc3C1=O)C2	-2.394%	-6.489%
COc1ccc(CN(C)[C@@H]2CN(C(=O)c3cccn3C)C[C@H]2O)cc1	-1.471%	-12.16%
COCCC(=O)N1CCC2(CCN(Cc3ccc(C)cc3)CC2)C1.O=C(O)C(F)(F)F	-	52.88%
Cc1nnc2n1CCN(C(=O)c1cn(-c3ccccc3)nn1)C2	13.09%	-23.72%
CC(=O)N1CCC(N2CCOC[C@H]2c2nc(-c3ccc(Cl)s3)c[nH]2)CC1	5.96%	7.393%
O=C(c1ccncc1)N1CCN(Cc2cccnc2)c2ncccc2C1	2.343%	-
O=C(O)c1c(-c2ccncc2)ncc2c1CCN(Cc1ccco1)C2	-0.9756%	4.606%
COc1ccccc1CN(Cc1cccnc1)Cc1c[nH]c(C)n1	3.909%	19.52%
O=C(Nc1cnn(COc2ccc(F)cc2Cl)c1)C1CC1	-1.952%	-87.14%
OC[C@H]1CCCN1c1nccc(-c2c[nH]nc2C2CCCCC2)n1	2.048%	26.55% & 43.57%
CCc1ccc(CN2CCC3(CC2)CC(N2CCN(C)CC2)CO3)cc1.O=C(O)C(F)(F)F (configuration not stated)	-	78.58%
CN1C[C@@H]2CN(C(=O)NCc3ccccc3)CCC[C@]2(C(=O)O)C1	-6.352%	-
COCCn1cnc2ccc(NC(=O)CCCn3cccn3)cc2c1=O	0.9685%	16.77%
[H][C@@]12CN(Cc3ccccc3C)C[C@]1([H])OCC(=O)N2CC(N)=O	-	15.25%
[H][C@@]12CN(CC(C)C)C[C@]1([H])OCC(=O)N2c1ccccc1	-	22.45%
CC(=O)NC1CCCN(C(=O)NCc2cccnc2-n2cccn2)C1 (configuration not stated)	2.999%	-13.59%
CCOCC(O)CN1CCN(C(=O)c2cnc3n[nH]c(C)c3c2)CC1 (configuration not stated)	7.846%	-8.061%
Cc1cccc2ncnc(N3CCOC(C)C3)c12 (configuration not stated)	4.114%	22.67%
Cn1nc2c(cc1=O)CN(Cc1nc(-c3cccs3)no1)CC2	-4.824%	-6.161%
CC(C)COC(C)C(=O)N1CCC(C)CC1 (configuration not stated)	6.374%	3.768%
O=C(c1ncccc1O)N1CCc2c(ncnc2N2CCOCC2)C1	1.381%	12.56%
[H][C@]12CCN(c3nc(CO)cs3)C[C@]1(COC)CC[C@@H](N1CCOCC1)C2	-	4.188%
C[C@@H]1CN(C(=O)C2CCS(=O)(=O)CC2)C[C@@]1(O)C1CC1	7.071%	-11.49%
CS(=O)(=O)N[C@@H]1COC[C@@H]2CN(Cc3ccco3)C[C@@H]21	-6.042%	-
CNC(=O)c1cn2cc(-c3cccc(Cl)c3)n(CC=C(C)C)c(=O)c2n1	-0.2433%	6.107%
O=C1[C@@H]2C[C@H](O)CCN2C(=O)CN1CCSc1ccccn1	3.883%	-
CCOC(C)c1nc(Cn2cc(-n3cccc3)cn2)cs1 (configuration not stated)	4.785%	1.617%
CCO[C@@H]1CC[C@H]2[C@H]1OCCN2CC1CCC1	4.738%	-
CCc1cnc(N2CC3(CCN(Cc4ccsc4)C3)C2)nc1	-1.931%	-
Cn1ccc(C(=O)NCc2ccc(CN3CCCC3)cc2)cc1=O	-5.735%	14.22%
Cc1ccc2nc(CN(C)Cc3ccc(C)o3)cc(=O)n2c1	7.231%	8.358%
O=S(=O)(NCCC(O)c1cccs1)c1ccccc1Cl (configuration not stated)	3.171%	0.374% & -13.96%
Cc1cccc(C2CC(=O)Nc3c2c(=O)[nH]n3C(C)C)c1 (configuration not stated)	0.7663%	-13.13%
Cc1ccc(S(N)(=O)=O)cc1C(=O)NC1CCCN(C)C1 (configuration not stated)	3.471%	17.05%
Cc1nn2cnnc2c(C)c1CCC(=O)Nc1nc2c(s1)CCC2	6.604%	17.11%
COC(=O)c1ccc(C(=O)N2CCc3c(ncn3C3CC3)C2)cc1	-0.8949%	27.58%
Cc1cc(CN2CC[C@H]3C[C@H](c4nccs4)O[C@@H]3C2)no1	8.997%	-
COCCN(Cc1ccoc1)C(=O)CSc1ccc(F)cc1	1.453%	14.3%
CC[C@@H]1N(Cc2ccc(OC)cc2)CCC[C@]12CCC(=O)N2CCOC.O=C(O)C(F)(F)F	-	3.85%
NCc1cc(-c2ccccc2)n2nccc2n1	3.012%	-
Cc1noc(C)c1C(=O)N1C[C@H]2CC[C@@H]1CN(c1cnccn1)C2	1.844%	-
O=S(=O)(c1cccs1)N1Cc2nc(CN3CCCCC3)oc2C1	7.797%	-
Cc1ccc(-c2noc(CN3CCC(c4ccn[nH]4)CC3)n2)cc1	2.689%	12.54%

Repeated from the top, 6 entries:

With CS(=O)(=O)N1CCc2[nH]cnc2C12CCN(C(=O)c1ccc[nH]1)CC2 the screen gave CoaBC: 0.3636%; Leishmania in macrophages: 21.47%.
With N#Cc1nccnc1N1CCC(Cc2ccccc2)C1 (configuration not stated) the screen gave CoaBC: -4.715%; Leishmania in macrophages: -9.001%.
With [H][C@@]12CCC(=O)N(CCCOC)[C@]1([H])CCN(Cc1ccc3occc3c1)C2 the screen gave Leishmania in macrophages: 36.47%.
With CCCc1nc(N[C@H]2COC[C@@H]2N2CCCC2)c2cnn(C)c2n1 the screen gave CoaBC: 13.11%; Leishmania in macrophages: -3.075%.
With O=C(c1cccc(S(=O)(=O)NCCCn2cccn2)c1)N1CCOCC1 the screen gave CoaBC: 0.1206%; Leishmania in macrophages: -2.169%.
With Cc1ccc(N2Cc3cnn(Cc4ccc(F)cc4)c3C2)nn1 the screen gave CoaBC: 6.684%; Leishmania in macrophages: 10.72%.